From the supplement of paper PMC12067093, “Discovery and optimisation of a covalent ligand for TRIM25 and its application to targeted protein ubiquitination” (Chemical Science, 2025)
The list shows a part of the results.

The chains behind the UniProt entries cited, without tags or fusion partners. Where a name states a change or a piece, a line headed by the entry shows the natural chain unless it says otherwise.
UniProt Q13740: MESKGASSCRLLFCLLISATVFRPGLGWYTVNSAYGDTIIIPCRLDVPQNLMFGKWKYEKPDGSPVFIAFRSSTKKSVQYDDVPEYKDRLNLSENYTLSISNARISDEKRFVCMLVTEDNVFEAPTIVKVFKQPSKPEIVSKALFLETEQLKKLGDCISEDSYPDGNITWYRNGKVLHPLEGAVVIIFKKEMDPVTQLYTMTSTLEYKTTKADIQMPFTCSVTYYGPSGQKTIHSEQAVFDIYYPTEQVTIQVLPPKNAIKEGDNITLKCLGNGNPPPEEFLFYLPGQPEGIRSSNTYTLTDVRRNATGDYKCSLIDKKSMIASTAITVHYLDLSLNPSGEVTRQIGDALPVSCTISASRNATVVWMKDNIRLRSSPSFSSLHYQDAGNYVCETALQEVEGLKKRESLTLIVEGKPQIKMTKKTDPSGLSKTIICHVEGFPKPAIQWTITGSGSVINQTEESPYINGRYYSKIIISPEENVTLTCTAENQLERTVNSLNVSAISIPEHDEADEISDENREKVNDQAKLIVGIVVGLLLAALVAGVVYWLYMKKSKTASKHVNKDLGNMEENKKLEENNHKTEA
UniProt Q9Y3D8, whole entry, looked up: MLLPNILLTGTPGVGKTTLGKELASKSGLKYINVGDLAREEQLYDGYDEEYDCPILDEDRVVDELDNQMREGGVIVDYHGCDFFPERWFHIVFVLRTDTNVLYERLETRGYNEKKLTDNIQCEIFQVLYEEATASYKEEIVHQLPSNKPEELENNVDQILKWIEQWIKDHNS
UniProt Q9Y303: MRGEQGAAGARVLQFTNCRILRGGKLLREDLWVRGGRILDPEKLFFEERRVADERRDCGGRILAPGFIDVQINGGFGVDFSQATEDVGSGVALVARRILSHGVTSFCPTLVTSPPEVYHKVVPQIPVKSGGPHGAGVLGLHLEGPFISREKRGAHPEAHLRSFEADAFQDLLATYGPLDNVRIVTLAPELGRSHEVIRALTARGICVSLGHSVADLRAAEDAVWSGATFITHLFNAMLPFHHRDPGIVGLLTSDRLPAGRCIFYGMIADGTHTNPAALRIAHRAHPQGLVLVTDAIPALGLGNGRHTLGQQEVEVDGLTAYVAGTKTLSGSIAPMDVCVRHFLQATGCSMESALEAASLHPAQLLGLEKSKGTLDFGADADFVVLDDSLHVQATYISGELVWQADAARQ
UniProt O00170: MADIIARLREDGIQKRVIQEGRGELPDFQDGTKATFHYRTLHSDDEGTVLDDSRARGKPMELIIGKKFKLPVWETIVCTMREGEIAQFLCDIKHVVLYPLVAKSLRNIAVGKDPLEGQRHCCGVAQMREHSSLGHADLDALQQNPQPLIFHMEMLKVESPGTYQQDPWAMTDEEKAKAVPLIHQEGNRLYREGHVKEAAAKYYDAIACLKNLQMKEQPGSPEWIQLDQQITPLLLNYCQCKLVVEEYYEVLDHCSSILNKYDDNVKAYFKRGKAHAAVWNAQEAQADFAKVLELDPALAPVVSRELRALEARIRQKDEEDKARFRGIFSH
UniProt P02760: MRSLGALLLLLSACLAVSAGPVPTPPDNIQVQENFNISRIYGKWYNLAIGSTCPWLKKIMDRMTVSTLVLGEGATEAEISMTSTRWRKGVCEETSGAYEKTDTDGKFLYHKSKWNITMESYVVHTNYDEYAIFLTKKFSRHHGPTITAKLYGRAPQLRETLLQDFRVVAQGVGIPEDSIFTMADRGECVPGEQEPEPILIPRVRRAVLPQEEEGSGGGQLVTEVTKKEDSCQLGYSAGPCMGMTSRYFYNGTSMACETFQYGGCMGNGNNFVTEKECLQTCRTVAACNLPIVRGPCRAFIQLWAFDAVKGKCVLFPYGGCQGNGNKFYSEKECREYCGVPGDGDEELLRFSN
UniProt P04075: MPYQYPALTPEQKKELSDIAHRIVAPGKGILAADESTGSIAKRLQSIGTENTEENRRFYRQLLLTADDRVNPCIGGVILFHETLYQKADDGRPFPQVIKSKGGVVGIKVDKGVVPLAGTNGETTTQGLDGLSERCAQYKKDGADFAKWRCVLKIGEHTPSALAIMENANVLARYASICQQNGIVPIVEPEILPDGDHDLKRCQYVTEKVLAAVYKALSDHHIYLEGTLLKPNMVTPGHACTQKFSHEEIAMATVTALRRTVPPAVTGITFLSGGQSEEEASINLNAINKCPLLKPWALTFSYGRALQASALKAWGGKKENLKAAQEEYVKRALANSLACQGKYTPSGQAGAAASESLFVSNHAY
UniProt O43865, whole entry, looked up: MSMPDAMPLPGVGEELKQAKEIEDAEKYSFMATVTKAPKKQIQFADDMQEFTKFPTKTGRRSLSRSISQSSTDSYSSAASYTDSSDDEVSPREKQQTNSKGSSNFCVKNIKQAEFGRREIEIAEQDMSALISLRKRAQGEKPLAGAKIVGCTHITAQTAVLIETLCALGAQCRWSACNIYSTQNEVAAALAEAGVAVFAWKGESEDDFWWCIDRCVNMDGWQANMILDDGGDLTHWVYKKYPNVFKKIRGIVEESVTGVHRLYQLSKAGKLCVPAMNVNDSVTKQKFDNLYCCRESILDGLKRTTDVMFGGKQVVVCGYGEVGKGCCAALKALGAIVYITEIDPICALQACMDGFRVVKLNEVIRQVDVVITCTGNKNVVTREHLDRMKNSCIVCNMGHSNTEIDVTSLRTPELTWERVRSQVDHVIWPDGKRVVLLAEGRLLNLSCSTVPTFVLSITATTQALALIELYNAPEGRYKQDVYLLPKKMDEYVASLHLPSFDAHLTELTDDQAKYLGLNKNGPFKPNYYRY
UniProt Q9UJX5, whole entry, looked up: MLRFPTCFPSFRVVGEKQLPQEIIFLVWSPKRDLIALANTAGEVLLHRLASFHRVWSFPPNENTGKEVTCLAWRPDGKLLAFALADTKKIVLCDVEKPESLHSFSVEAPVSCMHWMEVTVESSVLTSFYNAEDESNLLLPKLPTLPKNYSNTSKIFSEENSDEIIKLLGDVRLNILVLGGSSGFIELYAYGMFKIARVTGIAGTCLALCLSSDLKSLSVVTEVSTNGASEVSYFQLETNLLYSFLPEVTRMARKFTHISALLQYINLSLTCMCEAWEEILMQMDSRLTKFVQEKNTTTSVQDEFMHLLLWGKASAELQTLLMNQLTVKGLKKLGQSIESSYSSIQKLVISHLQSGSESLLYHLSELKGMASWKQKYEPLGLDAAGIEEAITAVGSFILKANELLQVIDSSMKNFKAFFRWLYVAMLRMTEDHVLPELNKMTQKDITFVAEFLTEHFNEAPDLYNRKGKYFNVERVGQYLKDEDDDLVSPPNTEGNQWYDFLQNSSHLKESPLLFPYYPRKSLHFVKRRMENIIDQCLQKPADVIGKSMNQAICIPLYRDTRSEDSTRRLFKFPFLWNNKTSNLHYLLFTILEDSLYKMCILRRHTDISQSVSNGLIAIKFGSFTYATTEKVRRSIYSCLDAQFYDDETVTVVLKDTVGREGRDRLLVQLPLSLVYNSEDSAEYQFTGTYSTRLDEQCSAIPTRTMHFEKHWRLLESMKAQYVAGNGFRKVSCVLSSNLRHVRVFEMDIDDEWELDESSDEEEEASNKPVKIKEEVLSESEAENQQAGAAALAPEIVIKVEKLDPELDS
UniProt O00116: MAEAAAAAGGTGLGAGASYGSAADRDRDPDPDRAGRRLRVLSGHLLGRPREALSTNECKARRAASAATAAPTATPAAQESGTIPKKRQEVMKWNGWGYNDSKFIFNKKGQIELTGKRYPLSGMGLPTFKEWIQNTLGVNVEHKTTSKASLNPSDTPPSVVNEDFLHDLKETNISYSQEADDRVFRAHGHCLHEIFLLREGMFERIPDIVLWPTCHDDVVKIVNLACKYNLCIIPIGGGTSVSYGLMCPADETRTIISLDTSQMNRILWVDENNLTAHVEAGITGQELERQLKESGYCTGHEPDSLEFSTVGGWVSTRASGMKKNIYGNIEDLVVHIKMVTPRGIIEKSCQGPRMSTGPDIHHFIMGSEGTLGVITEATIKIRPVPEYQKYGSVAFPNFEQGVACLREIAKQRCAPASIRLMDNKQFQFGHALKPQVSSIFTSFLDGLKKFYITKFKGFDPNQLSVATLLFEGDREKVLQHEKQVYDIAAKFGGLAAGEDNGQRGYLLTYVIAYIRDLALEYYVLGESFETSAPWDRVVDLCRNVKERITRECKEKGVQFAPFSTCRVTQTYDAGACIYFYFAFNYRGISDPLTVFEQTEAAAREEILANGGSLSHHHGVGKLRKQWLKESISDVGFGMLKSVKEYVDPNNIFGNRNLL
UniProt O15120: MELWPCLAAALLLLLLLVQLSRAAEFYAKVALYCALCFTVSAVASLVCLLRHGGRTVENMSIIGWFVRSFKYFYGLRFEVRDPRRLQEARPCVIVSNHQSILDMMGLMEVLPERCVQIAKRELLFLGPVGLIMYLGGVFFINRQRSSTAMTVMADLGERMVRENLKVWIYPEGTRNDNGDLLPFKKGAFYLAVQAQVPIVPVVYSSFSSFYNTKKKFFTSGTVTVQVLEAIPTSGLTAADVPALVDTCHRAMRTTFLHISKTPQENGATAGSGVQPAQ
UniProt Q9P2R3: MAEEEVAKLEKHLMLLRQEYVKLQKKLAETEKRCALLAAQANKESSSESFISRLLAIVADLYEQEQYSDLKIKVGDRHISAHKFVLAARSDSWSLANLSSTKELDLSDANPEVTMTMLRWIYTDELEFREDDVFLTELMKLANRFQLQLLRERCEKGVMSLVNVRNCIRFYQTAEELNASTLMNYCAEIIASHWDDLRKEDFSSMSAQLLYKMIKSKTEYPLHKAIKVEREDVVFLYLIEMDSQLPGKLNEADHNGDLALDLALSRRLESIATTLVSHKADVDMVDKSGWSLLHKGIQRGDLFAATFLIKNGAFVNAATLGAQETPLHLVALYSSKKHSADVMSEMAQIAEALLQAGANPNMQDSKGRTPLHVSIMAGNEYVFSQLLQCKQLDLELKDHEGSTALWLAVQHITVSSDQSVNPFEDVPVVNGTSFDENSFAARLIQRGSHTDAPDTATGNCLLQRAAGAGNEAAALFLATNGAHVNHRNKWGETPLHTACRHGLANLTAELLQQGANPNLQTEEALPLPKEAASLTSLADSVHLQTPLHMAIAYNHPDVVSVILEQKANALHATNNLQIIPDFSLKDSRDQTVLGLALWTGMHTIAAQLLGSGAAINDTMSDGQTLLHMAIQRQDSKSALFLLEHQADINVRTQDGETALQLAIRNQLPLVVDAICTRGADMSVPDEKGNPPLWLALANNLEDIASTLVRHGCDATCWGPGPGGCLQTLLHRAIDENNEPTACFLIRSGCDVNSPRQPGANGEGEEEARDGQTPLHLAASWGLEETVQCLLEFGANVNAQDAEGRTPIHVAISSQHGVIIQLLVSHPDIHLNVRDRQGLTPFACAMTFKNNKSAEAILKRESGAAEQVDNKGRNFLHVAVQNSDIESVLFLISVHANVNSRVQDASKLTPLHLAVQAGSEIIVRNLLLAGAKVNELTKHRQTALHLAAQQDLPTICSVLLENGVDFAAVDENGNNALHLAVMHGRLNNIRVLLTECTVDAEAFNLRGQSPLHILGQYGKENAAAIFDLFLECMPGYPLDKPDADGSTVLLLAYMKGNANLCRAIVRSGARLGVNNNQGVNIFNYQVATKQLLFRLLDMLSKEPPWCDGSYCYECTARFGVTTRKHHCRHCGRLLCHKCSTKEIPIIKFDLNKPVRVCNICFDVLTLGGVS
UniProt P49189: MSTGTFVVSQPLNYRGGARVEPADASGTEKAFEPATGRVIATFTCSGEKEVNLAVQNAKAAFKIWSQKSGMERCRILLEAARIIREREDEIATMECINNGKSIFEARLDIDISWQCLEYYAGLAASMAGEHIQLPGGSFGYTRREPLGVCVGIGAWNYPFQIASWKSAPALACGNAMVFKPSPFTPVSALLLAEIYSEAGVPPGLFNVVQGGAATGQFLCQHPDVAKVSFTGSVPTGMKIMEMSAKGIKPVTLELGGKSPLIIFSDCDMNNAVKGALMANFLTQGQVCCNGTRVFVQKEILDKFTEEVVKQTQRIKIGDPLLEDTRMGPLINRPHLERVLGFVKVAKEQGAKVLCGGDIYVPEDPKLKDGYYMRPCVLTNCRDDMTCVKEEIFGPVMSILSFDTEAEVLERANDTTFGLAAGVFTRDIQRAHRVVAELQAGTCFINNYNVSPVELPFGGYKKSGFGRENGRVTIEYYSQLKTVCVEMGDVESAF
UniProt Q6P6C2: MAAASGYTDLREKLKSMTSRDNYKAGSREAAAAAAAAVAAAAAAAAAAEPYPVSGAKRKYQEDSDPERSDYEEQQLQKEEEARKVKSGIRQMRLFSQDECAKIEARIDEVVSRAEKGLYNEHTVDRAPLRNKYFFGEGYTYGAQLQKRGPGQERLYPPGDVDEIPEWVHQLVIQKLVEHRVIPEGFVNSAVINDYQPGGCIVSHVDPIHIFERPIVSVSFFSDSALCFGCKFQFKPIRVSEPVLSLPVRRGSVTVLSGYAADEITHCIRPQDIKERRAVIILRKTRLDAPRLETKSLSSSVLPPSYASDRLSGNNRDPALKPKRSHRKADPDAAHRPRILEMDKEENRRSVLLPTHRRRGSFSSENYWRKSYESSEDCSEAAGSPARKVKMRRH

These targets were tested with Cc1cc(ccc1-c1ccccc1)C(=O)N1CCCN(CC1)C(=O)CCl [compound 10] (assay: probe-labelled cysteine peptide fold change vs DMSO (competition) (log2 fold change); higher = less target engagement (more negative = stronger competition)). Settings: 10 µM; THP-1; incubation time: 4 h.
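Also: competitive profiling in live THP-1 cells: cysteine peptides tagged with an iodoacetamide desthiobiotin (IA-DTB) probe, intensity after compound treatment relative to DMSO-treated cells.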

| Target | probe-labelled cysteine peptide fold change |
| --- | --- |
| ALCAM_Q13740_270_CLGNGNPPPEEFLFYLPGQPEGIR (UniProt Q13740) | -0.0239 |
| AKAP8L_Q9ULX6_128_LDMVPHLETDMMQGGVYGSGGERYDSYESCDSR (UniProt Q9ULX6) | -0.185 |
| AKR1A1_P14550_134_NADGTICYDSTHYK (UniProt P14550) | -0.106 |
| AK6_Q9Y3D8_122_KLTDNIQCEIFQVLYEEATASYK (UniProt Q9Y3D8) | 0.161 |
| AMDHD2_Q9Y303_261_CIFYGMIADGTHTNPAALR (UniProt Q9Y303) | 0.102 |
| AKR1A1_P14550_187_QIDDILSVASVRPAVLQVECHPYLAQNELIAHCQAR (UniProt P14550) | 0.172 |
| AKR1B1_P15121_200_LIQYCQSK (UniProt P15121) | -0.102 |
| AIP_O00170_90_EGEIAQFLCDIK (UniProt O00170) | -0.312 |
| AK2_P54819_40_LAENFCVCHLATGDMLR (UniProt P54819) | -0.125 |

Same assay, conditions: 50 µM; THP-1; incubation time: 4 h

| Target | probe-labelled cysteine peptide fold change |
| --- | --- |
| ALG2_Q9H553_59_IWTAHYDPGHCFAESR (UniProt Q9H553) | -0.205 |
| ANAPC1_Q9H1A4_962_DAIYHCR (UniProt Q9H1A4) | 0.229 |
| AMBP_P02760_277_ECLQTCR (UniProt P02760) | 0.386 |
| AMPD2_Q01433_107_SLPGPAPCLK (UniProt Q01433) | -0.711 |
| AMPD3_Q01432_47_DALSLFTVPEDCPIGQK (UniProt Q01432) | -0.147 |
| AK2_P54819_92_NLETPLCK (UniProt P54819) | -0.0542 |
| ALDOA_P04075_339_ALANSLACQGK (UniProt P04075) | -0.0749 |
| ANAPC7_Q9UJX3_131_VRPSTGNSASTPQSQCLPSEIEVK (UniProt Q9UJX3) | -0.812 |
| AHCYL1_O43865_317_QVVVCGYGEVGK (UniProt O43865) | -0.285 |
| ALDH5A1_P51649_93_WLPAAATFPVQDPASGAALGMVADCGVR (UniProt P51649) | 0.976 |
| ALDOA_P04075_202_CQYVTEK (UniProt P04075) | 0.0285 |
| AHCYL1_O43865_373_QVDVVITCTGNK (UniProt O43865) | -0.173 |
| AHCYL1_O43865_151_IVGCTHITAQTAVLIETLCALGAQCR (UniProt O43865) | 0.206 |
| ALDH2_P05091_66_KTFPTVNPSTGEVICQVAEGDKEDVDK (UniProt P05091) | -0.465 |
| ALG11_Q2TAA5_72_NQMVIAFFHPYCNAGGGGER (UniProt Q2TAA5) | -0.603 |
| ANAPC4_Q9UJX5_732_KVSCVLSSNLR (UniProt Q9UJX5) | -0.0159 |
| AGPS_O00116_226_IVNLACK (UniProt O00116) | -0.103 |
| ALDH18A1_P54886_674_SLRTEYGDLELCIEVVDNVQDAIDHIHK (UniProt P54886) | -0.188 |
| AGPAT2_O15120_92_PCVIVSNHQSILDMMGLMEVLPER (UniProt O15120) | 0.436 |
| ANKHD1_Q8IWZ3-6_2579_VPAGVQELTHCPDTPLLPPSDSR (UniProt Q8IWZ3) | 0.0474 |

| Target | probe-labelled cysteine peptide fold change |
| --- | --- |
| ALDH16A1_Q8IZ83_467_DPSVPTGGCK (UniProt Q8IZ83) | -0.217 |
| ANKFY1_Q9P2R3_389_TPLHVSIMAGNEYVFSQLLQCK (UniProt Q9P2R3) | 0.15 |
| ALDH4A1_P30038_95_FCYADK (UniProt P30038) | 0.0641 |
| ANAPC11_Q9NYG5_54_VPGDDCPLVWGQCSHCFHMHCILK (UniProt Q9NYG5) | -0.0887 |
| ALDH9A1_P49189_289_GALMANFLTQGQVCCNGTR (UniProt P49189) | -0.399 |
| AMPD2_Q01433_310_TYEQGPDTPVSADAPVHPPALEQHPYEHCEPSTMPGDLGLGLR (UniProt Q01433) | -0.408 |
| ALKBH5_Q6P6C2_378_SYESSEDCSEAAGSPARK (UniProt Q6P6C2) | -0.685 |
| ALDH1B1_P30837_179_HEPVGVCGQIIPWNFPLVMQGWK (UniProt P30837) | -0.0672 |
| ALDH9A1_P49189_173_SAPALACGNAMVFK (UniProt P49189) | 0.275 |
| AGPS_O00116_214_IPDIVLWPTCHDDVVK (UniProt O00116) | 0.0559 |
| ALDH9A1_P49189_150_REPLGVCVGIGAWNYPFQIASWK (UniProt P49189) | 0.271 |
| ALCAM_Q13740_270_CLGNGNPPPEEFLFYLPGQPEGIR (UniProt Q13740) | 0.0758 |
| AKAP8L_Q9ULX6_128_LDMVPHLETDMMQGGVYGSGGERYDSYESCDSR (UniProt Q9ULX6) | -0.639 |
| AKR1A1_P14550_134_NADGTICYDSTHYK (UniProt P14550) | -0.0321 |
| AK6_Q9Y3D8_122_KLTDNIQCEIFQVLYEEATASYK (UniProt Q9Y3D8) | 0.461 |
| AMDHD2_Q9Y303_261_CIFYGMIADGTHTNPAALR (UniProt Q9Y303) | 0.0697 |
| AKR1A1_P14550_187_QIDDILSVASVRPAVLQVECHPYLAQNELIAHCQAR (UniProt P14550) | 0.161 |
| AKR1B1_P15121_200_LIQYCQSK (UniProt P15121) | -0.0584 |
| AIP_O00170_90_EGEIAQFLCDIK (UniProt O00170) | -0.0858 |
| AK2_P54819_40_LAENFCVCHLATGDMLR (UniProt P54819) | 0.078 |
